# Library screening results

Chains of the proteins cited; added tags and fusions are not shown.
UniProt E9BF75, entry or part of it: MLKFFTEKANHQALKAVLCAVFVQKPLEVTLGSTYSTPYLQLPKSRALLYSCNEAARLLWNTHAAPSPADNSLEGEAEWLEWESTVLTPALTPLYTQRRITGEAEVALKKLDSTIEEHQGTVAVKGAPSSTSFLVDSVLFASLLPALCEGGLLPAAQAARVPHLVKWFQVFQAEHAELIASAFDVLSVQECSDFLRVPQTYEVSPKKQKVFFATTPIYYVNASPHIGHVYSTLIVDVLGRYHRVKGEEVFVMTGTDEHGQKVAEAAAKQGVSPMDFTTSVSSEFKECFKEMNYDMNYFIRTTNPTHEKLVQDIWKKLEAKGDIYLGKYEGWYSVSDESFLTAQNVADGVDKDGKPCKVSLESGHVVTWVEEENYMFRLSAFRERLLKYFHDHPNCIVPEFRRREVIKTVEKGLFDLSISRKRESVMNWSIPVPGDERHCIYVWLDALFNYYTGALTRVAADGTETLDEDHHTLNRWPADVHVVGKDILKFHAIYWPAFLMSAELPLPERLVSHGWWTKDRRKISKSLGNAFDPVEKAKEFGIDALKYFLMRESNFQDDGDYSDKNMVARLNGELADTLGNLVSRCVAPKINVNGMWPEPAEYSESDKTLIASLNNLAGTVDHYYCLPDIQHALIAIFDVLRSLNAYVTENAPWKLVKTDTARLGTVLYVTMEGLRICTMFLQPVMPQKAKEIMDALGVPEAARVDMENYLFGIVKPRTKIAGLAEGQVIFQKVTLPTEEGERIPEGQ

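Primary screen of methionyl-tRNA synthetase; the read-out is not stated. Target: Methionyl-tRNA synthetase (putative), Leishmania donovani (UniProt E9BF75). The test concentration is not given. Values are per cent inhibition. Size under these conditions: about 68,000 compounds, about 24 of them at 50% or above in at least one test.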

All values are in %.
The record does not define 0% and 100%; most values in the screen are far below 50% and negative numbers occur (in some assays of this library far below -100).
The compounds are a random part of those screened.

| SMILES | inhibition |
|---|---|
| `Cc1nc(C)n(CCC(=O)NCC2CCCOC2)n1` (stereo not given) | 9.884 |
| `CN1CC(c2ccccc2)C2(CCN(C(=O)c3ccc[nH]3)CC2)C1=O` (stereo not given) | 1.038 |
| `Cc1ccn(CCNc2ncnc3c2CCN(c2cnccn2)CC3)n1` | 1.961 |
| `CC(C(=O)NCc1cccs1)N1CCN(Cc2nccn2C)CC1` (stereo not given) | -1.95 |
| `Cc1ccc(CNC(=O)c2c[nH]nc2NC(=O)C2CCC2)cc1` | 19.94 |
| `Cc1cc(C)n(CC2CCCN2CC(=O)N(C)Cc2ccco2)n1` (stereo not given) | 16.26 |
| `CSc1ncccc1C(=O)N1C[C@H]2CC[C@@H]1CN(c1cnccn1)C2` | 17.32 |
| `CC(C)c1nnc2n1CCN(C(=O)c1ccc3c(c1)COC3)C2` | 5.897 |
| `CCCN(C)S(=O)(=O)N1CCCC1c1ccco1` (stereo not given) | 18.73 |
| `COCCNC(=O)CNC(=O)c1nc(Cc2c(Cl)cccc2Cl)no1` | 13.94 |
| `CC(C)(O)CCc1cccc(C(=O)N2CCC[C@H]2CN2CCCC2)c1` | 19.2 |
| `Cc1noc(C)c1CNC(=O)N1CCCC(C)CC1` (stereo not given) | 12.06 |
| `CN(Cc1ccsc1)Cc1nc(-c2ccncc2)no1` | 14.97 |
| `Cc1cc(C)n(CCC(=O)N2CCC(Nc3cccnn3)CC2)n1` | 6.842 |
| `CN(Cc1ccccc1)CC1CC2(CO1)CN(c1nncs1)C2` (stereo not given) | 11.35 |
| `O=C(c1cnccn1)N1CC[C@H]2[C@H]1CCN2S(=O)(=O)C1CC1` | 10.96 |
| `Cc1cc(C(=O)N2C[C@H](CO)C[C@H](CN3CCOCC3)C2)nc(C)n1` | 8.696 |
| `Cc1nn(C)c(C)c1C1CCCN1Cc1nc(-c2ccco2)oc1C` (stereo not given) | 9.841 |
| `COc1ccc(CN2CCc3sccc3C2C)cc1CN1CCOCC1` (stereo not given) | 11.17 |
| `O=C(c1ccc[nH]1)N1CCC(c2nccn2Cc2ccncc2)CC1` | 13.3 |
| `Cc1cc2c(N3CCC(N(C)Cc4nccs4)CC3)ncnc2s1` | 15.62 |
| `CNC(=O)C1(CCCc2ccccn2)CN(Cc2coc(C)n2)C1` | 5.319 |
| `Cc1cc2nc(C(C)C)cc(NC(C)c3nncn3C3CCCC3)n2n1` (stereo not given) | 8.122 |
| `Cc1ccc(S(=O)(=O)Nc2ccc(-n3nnn(C)c3=O)cc2)cc1` | -4.317 |
| `CC1c2cc(F)ccc2CCN1C(=O)c1[nH]c(=O)[nH]c(=O)c1N` (stereo not given) | 9.456 |
| `Cc1cc(N(C)Cc2ccsc2)n2nc(C)c(C)c2n1` | 8.602 |
| `CCN1CC2(CC1=O)CN(Cc1ccncc1)CCN(C(=O)C(C)C)C2` (stereo not given) | 4.899 |
| `Cc1nc(Nc2nnc(C)s2)cc(C2CCCN2C)n1` (stereo not given) | -1.045 |
| `Cn1nnc2c1CCN(C(=O)C1CC1)C2COCCN1CCCC1` (stereo not given) | 14.07 |
| `Cc1ccnc(C2CCN(S(=O)(=O)c3cn(C)cn3)CC2)n1` | 14.79 |
| `CN(CCNS(C)(=O)=O)CC(c1cccs1)N1CCOCC1` (stereo not given) | 6.069 |
| `N#CC1(c2ccccc2)CCN(C(=O)C2CCCN(C(N)=O)C2)CC1` (stereo not given) | 1.079 |
| `O=C(C1CCOC1)N1CC[C@@H](O)[C@@H]1Cc1ccccc1` (stereo not given in full) | -18.52 |
| `COC(=O)c1ccc(-c2cc(C(F)(F)F)cc(N(C)C)n2)cc1` | 15.09 |
| `CC(C)c1cc(C2CCCN2Cc2nc(-c3ccco3)no2)no1` (stereo not given) | 9.804 |
| `O=C(c1ccc(Cl)cc1-n1cnnn1)N1CCC2(CC1)OCCO2` | 15.86 |
| `CCSc1ccc(NC(=O)N2CCCC2c2ccncc2)cn1` (stereo not given) | 9.278 |
| `Cc1cnn(C2CCCN(C(=O)c3cc4nc(C)ccc4o3)C2)c1` (stereo not given) | 14.71 |
| `Cc1ncoc1C(=O)N1CCn2c(COCC3CC3)cnc2C1C` (stereo not given) | 15.88 |
| `CSCCCNC(=O)C(c1ccccc1C)N(C)C` (stereo not given) | 10.19 |
| `CCc1cccc(N2CCC(NC(=O)CCNC(N)=O)CC2)c1` | 10.03 |
| `CCc1cnc(CN(C)C2CCN(CC(=O)Nc3cc(C)on3)C2)o1` (stereo not given) | 7.042 |
| `O=c1cc(Cn2cncn2)nc2n1CCCN(CCN1CCCC1)C2` | 4.375 |
| `CC(C)NC1CC2(CCNCC2)c2cc(F)ccc21` (stereo not given) | 12.11 |
| `c1ccc(OCc2noc3c2CN(c2ncccn2)CC3)nc1` | 14.86 |
| `C[C@@H]1CN(C(=O)c2cccs2)C[C@]12CCN(CCN(C)C)C2=O` | 1.01 |
| `Cc1cc(C(=O)NCc2ccc(F)cc2)c2c(C3CCCN3)noc2n1` (stereo not given) | 6.286 |
| `Cc1ccc(N2CC[C@@H]3CN(Cc4cccc(C)n4)C[C@@H]3C2)nn1` | 7.299 |
| `COc1ccnc(N2CCN(C(=O)Cc3ccn(C(C)C)n3)CC2)n1` | 25.97 |
| `Cc1[nH]c2c(C)ccc(C)c2c1CC(=O)NCC(O)c1cccnc1` (stereo not given) | 10.92 |
| `CC(C)=CCN1CCC2(CC1)c1ccccc1[C@@H](N1CCSCC1)[C@@H]2O` | 6.41 |
| `NC(=O)CN1CCCN(C(=O)Cc2cccc(C(F)(F)F)c2)CC1` | 1.445 |
| `Cc1nn(C)c(C)c1C1CCCN1CC(=O)NCc1ccco1` (stereo not given) | 11.35 |
| `CN(C)c1nccnc1C1CCN(C2CCCCC2O)CC1` (stereo not given) | 13.3 |
| `COc1cccc(Nc2nc(N3CCCC3)nc3c2CNCC3)c1` | 10.5 |
| `Cc1ccccc1CN(C)C(=O)CN1CCOC(Cn2cncn2)C1` (stereo not given) | 9.296 |
| `CC(=O)N1CCOC(CCc2cc(-c3c(C)noc3C)ncn2)C1` (stereo not given) | 19.06 |
| `CN(C)C1CCC2(CCN(Cc3cccnc3)CC2)c2ccccc21` (stereo not given) | 14.21 |
| `Cc1cc(CNC(=O)NCCC(=O)N2CCCc3ccccc32)no1` | 10.34 |
| `Cc1ccccc1-c1cncc(C2CCN(CC(=O)N(C)C)CC2)n1` | 18.08 |
| `COc1cc(CNCCc2cnn(C)c2)cc2c1OCO2` | 21.58 |
| `Cn1c(N)c2c(=O)n(C)c(-c3ccccc3)cc2c(C#N)c1=O` | 16.32 |
| `O=C(c1nn[nH]c1Nc1cccc(Cl)c1)N1CCSCC1` | 16.02 |
| `CC(C)(C)C(=O)NCCCC(=O)NC(C)(C)c1ccc2c(c1)OCO2` | 10.08 |
| `O=C([C@@H]1CC[C@@H]2[C@@H](CCN2Cc2ccncc2)O1)N1CCCCO1` | 17.78 |
| `Cc1nn(C)c(C)c1CN(Cc1cccn1-c1ncccn1)C(C)C` | 6.183 |
| `CCCOC(=O)N1CCn2nc(-c3nc4ccccc4n3C)cc2C1` | 21.14 |
| `COCCCN(Cc1ccccn1)S(=O)(=O)Cc1ccccc1` | 1.602 |
| `Cc1ccc(CN2C[C@H]3CN(CC4CCN(C)CC4)C(=O)[C@H]3C2)s1` | 7.778 |
| `CC(=O)c1cnc(NCCN2CCCC(c3ccccc3)C2)nc1C` (stereo not given) | 8.889 |
| `COc1ccc(Cn2ccnc2)cc1F` | 12.2 |
| `CNc1cc2c(nn1)CCN(C(=O)c1cc(C)n(C3CC3)c1C)C2` | 16.33 |
| `FC(F)Oc1ccc(CNCc2cc(Br)c3c(c2)OCO3)cc1` | 13.97 |
| `O=C(CCc1c[nH]cn1)N1CC[C@@H](c2ccc3ccccc3c2)[C@H](O)C1` | 13.66 |
| `Oc1cc(CCC2CCCCN2)cc(-c2cccnc2)c1` (stereo not given) | 6.933 |
| `c1csc(CN2C[C@@H]3COC[C@]3(COCc3ccncc3)C2)c1` | 11.98 |
| `O=C(c1cncnc1)N1Cc2ccccc2OC2(CCOCC2)C1` | 18.65 |

6 of the entries, repeated:

SMILES,inhibition
Cc1nn(C)c(C)c1CN(Cc1cccn1-c1ncccn1)C(C)C,6.183
CN(Cc1ccccc1)CC1CC2(CO1)CN(c1nncs1)C2 (stereo not given),11.35
Cn1nnc2c1CCN(C(=O)C1CC1)C2COCCN1CCCC1 (stereo not given),14.07
CN(CCNS(C)(=O)=O)CC(c1cccs1)N1CCOCC1 (stereo not given),6.069
O=C(c1nn[nH]c1Nc1cccc(Cl)c1)N1CCSCC1,16.02
CN(C)c1nccnc1C1CCN(C2CCCCC2O)CC1 (stereo not given),13.3

From ChEMBL document CHEMBL3988442, “University of Dundee, Small-Polar-MMV Screening Library” (2021).